Laboratory results published in publication PMC4532879.
No constants are given. Whether binding was seen depends on the method and setting. In cells and extracts the contact can be indirect. Some results given as binding are weak or reduced against the parent protein; the word gives no strength. Values belong to the molecule of their own block, whether it stands above or below them.

The chains behind the UniProt entries cited, without tags or fusion partners.
UniProt P08670: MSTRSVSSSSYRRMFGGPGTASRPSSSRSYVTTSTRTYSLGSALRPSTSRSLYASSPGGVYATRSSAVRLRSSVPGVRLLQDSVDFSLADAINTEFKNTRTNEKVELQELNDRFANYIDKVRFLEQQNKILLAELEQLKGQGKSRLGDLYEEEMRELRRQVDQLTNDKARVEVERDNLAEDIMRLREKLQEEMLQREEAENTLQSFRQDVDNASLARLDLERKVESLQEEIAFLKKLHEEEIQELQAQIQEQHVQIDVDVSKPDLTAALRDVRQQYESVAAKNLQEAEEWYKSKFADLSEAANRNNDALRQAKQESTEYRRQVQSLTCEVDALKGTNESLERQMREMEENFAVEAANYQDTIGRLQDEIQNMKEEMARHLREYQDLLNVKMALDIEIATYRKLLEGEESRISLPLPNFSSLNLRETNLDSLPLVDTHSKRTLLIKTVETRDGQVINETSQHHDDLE
UniProt Q15149: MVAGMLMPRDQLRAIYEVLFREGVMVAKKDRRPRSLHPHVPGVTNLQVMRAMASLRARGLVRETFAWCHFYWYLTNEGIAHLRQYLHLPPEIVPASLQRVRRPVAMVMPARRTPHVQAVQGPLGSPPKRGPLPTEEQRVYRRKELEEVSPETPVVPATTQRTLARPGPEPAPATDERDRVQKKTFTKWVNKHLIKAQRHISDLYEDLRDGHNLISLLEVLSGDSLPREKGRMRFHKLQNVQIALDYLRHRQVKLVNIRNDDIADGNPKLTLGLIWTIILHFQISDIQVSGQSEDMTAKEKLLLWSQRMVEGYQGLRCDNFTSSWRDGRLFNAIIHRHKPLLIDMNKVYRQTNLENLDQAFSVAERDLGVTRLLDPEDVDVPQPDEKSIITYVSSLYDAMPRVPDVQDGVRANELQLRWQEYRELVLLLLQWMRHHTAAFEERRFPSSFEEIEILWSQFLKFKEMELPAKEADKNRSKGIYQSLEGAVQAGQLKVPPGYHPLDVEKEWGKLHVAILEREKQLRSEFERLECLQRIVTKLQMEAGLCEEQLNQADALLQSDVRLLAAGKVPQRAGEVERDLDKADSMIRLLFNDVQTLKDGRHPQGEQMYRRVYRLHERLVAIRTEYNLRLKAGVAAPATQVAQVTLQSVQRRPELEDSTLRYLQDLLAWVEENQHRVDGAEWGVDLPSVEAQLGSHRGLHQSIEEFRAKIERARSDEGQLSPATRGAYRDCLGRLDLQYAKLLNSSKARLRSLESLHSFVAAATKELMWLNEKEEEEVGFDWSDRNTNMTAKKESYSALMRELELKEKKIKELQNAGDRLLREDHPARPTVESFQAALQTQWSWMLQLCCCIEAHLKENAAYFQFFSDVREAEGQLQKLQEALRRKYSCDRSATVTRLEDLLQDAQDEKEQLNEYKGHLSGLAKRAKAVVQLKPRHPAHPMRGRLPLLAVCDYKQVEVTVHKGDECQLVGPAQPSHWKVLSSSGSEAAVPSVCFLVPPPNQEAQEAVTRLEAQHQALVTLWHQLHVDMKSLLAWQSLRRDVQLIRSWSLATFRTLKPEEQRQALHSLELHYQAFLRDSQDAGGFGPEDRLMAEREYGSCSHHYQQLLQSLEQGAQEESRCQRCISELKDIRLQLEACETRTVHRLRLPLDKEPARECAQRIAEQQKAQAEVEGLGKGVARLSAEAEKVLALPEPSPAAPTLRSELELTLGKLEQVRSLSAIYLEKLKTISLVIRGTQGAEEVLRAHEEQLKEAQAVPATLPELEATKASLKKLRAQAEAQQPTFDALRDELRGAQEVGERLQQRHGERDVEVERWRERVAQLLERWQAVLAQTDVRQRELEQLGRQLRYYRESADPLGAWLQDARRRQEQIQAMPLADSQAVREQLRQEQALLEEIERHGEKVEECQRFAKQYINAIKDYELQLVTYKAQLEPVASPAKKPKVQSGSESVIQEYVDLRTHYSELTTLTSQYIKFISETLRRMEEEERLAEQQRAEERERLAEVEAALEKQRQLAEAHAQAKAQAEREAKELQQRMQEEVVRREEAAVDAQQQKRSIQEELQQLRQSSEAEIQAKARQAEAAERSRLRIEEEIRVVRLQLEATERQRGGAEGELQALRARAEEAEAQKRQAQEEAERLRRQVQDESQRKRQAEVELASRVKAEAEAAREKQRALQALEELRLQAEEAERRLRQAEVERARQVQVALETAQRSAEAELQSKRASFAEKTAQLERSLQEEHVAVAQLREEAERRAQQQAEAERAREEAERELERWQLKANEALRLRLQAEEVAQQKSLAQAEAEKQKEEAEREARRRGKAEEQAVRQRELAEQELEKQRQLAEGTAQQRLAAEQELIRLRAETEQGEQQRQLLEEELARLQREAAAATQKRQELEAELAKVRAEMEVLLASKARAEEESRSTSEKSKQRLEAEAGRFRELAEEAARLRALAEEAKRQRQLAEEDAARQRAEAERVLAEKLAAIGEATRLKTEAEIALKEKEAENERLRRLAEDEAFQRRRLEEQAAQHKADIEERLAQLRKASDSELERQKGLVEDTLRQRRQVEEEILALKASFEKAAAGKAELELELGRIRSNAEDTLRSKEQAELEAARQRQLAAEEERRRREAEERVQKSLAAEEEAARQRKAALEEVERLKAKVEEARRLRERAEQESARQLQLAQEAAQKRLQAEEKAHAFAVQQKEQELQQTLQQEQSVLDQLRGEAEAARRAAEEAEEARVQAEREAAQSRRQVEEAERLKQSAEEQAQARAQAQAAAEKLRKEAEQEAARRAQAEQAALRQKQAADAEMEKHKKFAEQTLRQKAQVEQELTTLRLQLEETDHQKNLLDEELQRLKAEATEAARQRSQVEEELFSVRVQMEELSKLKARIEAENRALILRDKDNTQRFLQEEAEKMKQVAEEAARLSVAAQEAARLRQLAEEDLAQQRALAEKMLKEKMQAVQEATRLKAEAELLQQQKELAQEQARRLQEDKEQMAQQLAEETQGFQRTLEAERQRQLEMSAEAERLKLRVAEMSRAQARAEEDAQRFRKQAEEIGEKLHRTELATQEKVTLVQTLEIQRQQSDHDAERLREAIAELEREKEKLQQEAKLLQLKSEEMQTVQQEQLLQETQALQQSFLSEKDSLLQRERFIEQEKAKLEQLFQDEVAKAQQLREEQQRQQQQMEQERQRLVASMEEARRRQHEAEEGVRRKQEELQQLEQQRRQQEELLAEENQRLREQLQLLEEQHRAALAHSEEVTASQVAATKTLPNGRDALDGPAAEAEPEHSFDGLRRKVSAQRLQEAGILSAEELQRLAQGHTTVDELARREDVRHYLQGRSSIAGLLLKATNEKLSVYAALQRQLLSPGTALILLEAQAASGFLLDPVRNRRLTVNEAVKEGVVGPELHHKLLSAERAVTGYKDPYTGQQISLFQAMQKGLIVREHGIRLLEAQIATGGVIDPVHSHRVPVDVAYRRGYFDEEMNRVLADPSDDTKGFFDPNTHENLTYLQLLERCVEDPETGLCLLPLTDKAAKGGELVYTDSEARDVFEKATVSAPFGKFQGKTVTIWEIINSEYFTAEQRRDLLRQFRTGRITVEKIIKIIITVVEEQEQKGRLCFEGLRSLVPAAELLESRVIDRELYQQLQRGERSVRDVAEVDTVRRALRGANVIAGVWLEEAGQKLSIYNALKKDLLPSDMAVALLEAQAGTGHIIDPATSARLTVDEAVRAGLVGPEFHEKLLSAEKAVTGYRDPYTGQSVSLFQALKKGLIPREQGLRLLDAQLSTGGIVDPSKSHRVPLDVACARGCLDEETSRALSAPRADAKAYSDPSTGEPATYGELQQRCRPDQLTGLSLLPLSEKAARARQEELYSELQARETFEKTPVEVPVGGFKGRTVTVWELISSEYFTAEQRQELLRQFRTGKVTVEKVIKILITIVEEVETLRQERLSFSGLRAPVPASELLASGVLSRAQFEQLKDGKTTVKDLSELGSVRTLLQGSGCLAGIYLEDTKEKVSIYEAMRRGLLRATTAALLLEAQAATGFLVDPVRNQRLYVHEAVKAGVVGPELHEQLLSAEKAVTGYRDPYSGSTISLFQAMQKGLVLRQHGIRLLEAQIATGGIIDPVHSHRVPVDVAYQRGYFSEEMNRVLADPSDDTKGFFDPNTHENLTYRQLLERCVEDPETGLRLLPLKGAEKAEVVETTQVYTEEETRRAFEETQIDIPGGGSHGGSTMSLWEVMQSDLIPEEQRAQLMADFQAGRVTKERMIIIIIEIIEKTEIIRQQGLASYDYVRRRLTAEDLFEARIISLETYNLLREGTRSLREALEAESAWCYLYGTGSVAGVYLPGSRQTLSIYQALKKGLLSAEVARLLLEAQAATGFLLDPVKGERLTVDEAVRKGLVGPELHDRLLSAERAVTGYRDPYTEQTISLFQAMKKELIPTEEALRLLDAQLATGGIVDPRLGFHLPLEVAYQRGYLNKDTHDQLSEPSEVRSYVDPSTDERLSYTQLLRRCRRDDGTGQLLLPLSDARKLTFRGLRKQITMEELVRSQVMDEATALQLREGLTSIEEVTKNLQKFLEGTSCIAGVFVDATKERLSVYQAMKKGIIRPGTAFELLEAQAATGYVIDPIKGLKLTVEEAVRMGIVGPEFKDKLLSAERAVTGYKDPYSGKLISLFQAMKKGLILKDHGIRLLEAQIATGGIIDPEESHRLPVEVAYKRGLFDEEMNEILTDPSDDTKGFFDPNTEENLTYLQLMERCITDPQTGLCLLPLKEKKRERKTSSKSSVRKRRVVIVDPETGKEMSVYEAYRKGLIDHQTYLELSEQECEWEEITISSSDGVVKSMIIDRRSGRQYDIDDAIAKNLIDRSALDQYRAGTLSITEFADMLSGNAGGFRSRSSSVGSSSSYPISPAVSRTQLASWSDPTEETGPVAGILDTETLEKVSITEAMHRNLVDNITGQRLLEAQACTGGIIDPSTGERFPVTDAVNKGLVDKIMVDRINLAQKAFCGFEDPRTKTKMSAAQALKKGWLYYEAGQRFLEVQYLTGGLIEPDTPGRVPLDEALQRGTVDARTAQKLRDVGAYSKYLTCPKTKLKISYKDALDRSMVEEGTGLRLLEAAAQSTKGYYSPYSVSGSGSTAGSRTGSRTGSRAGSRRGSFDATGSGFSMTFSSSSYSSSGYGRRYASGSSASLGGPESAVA
UniProt P08729: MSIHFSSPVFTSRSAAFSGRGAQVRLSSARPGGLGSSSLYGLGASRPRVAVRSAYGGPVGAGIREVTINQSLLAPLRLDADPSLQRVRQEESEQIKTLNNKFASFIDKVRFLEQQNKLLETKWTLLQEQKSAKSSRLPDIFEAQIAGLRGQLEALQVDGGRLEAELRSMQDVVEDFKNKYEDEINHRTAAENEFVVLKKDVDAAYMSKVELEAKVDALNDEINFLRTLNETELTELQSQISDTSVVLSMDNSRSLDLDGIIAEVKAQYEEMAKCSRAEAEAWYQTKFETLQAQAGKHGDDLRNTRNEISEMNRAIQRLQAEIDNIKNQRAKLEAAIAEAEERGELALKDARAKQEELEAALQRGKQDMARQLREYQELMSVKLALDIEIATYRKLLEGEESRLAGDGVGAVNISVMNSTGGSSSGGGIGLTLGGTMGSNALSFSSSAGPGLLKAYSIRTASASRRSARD

Key:
Experiment in all cases: cross-linking; in vivo crosslinking of a 1:1 mixture of SILAC light and heavy HeLa and HeLa/SN100 cells with the PIR crosslinker BDP-NHP, 10 mM, 1 h, room temperature; crosslinked peptides enriched (SCX, avidin) and identified by LC-MS (ReACT)
[1] = target: vimentin (human (endogenous in HeLa)) (UniProt P08670)
[2] = target: keratin 18 (human (endogenous in HeLa)) (UniProt P05783)
[3] = target: plectin (human (endogenous in HeLa)) (UniProt Q15149)

binding [1]: binds
Molecule: keratin 7 (from UniProt P08729 1-469)

binding [2]: binds
binding [3]: binds
B1: keratin 18 (protein, UniProt P05783 1-430)
chain: MSFTTRSTFSTNYRSLGSVQAPSYGARPVSSAASVYAGAGGSGSRISVSRSTSFRGGMGSGGLATGIAGGLAGMGGIQNEKETMQSLNDRLASYLDRVRSLETENRRLESKIREHLEKKGPQVRDWSHYFKIIEDLRAQIFANTVDNARIVLQIDNARLAADDFRVKYETELAMRQSVENDIHGLRKVIDDTNITRLQLETEIEALKEELLFMKKNHEEEVKGLQAQIASSGLTVEVDAPKSQDLAKIMADIRAQYDELARKNREELDKYWSQQIEESTTVVTTQSAEVGAAETTLTELRRTVQSLEIDLDSMRNLKASLENSLREVEARYALQMEQLNGILLHLESELAQTRAEGQRQAQEYEALLNIKVKLEAEIATYRRLLEDGEDFNLGDALDSSNSMQTIQKTTTRRIVDGKVVSETNDTKVLRH
